PubChem BioAssay AID2685 (National Center for Advancing Translational Sciences (NCATS), 2010)
The other results are listed elsewhere or left out. Further columns of the screen follow, without active or inactive calls. The list favours compounds with an active or inconclusive main result. The note in brackets gives the kind of curve behind each potency; many fits are weak.

Test: qHTS Assay for Lipid Storage Modulators in Drosophila S3 Cells;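 for cell number change: cells counted by Cell Tracker Red CMTPX staining in the red channel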
Details: BODIPY lipid droplet fluorescence, 18-24 h; for cell number change: measured here: cell count max response, cells fed with added oleic acid
How it was run: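 Laser-scanning cytometry quantifies lipid droplet accumulation (500–530 nm total intensity; droplet/cell object ratio) in oleic acid-fed (400 uM added) Drosophila S3 cells treated with a concentration series. 20 uM Triacsin C defined 100% inhibition.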

[1] = measured here: lipid fluorescence (Fed channel) AC50, cells fed with added oleic acid
[2] = measured here: cell number channel AC50, cells fed with added oleic acid

SMILES	AC50 [1]	cell number change [%]	AC50 [2]
Cc1ccccc1Nc1nnc(C)c(=O)[nH]1	6.51 µM [rising, single point]	–	–
COc1ccc(OC)c(C(=O)COC(=O)CNC(=O)C2CCCCC2)c1	6.51 µM [falling, single point]	3.81	–
O=C(CSc1nnc(-c2cccc(F)c2)o1)N1CCCC1	–	-1.28	–
O=C(COC(=O)c1ncc(Cl)c(Cl)c1Cl)NNC(=O)c1ccccc1	32.6 µM [falling, partial curve]	-5.15	–
Brc1ccc2ncnc(Nc3ccc(N4CCOCC4)cc3)c2c1	0.58 µM [rising, single point]	-24.6	–
O=C(Nc1ccc(Br)cc1)/C(=C/c1cccc([N+](=O)[O-])c1)NC(=O)C1CCCCC1	–	–	2.31 µM [rising, partial curve]
Cc1ccc(C(=O)NCCc2n[nH]c(=S)n2C)cc1	29.1 µM [rising, single point]	41.9	18.4 µM [rising, partial curve, poor fit]
CNc1nc(Cl)c(SC)c(NCc2cccc(OC)c2)n1	–	2.48	–
COc1ccc(CCN(C)CCC(=O)Nc2ccc(C)cc2)cc1OC	–	-0.414	–
COc1ccc(-c2[nH]nc3oc(=O)cc(C)c23)cc1	20.6 µM [falling, single point]	-13.1	–
COc1ccc(C2C(C(=O)Nc3cccc(C)n3)CCC(=O)N2c2ccc(OC)cc2)cc1 (configuration not stated)	1.16 µM [rising, full curve]	32.4	8.2 µM [rising, partial curve, poor fit]
O=C(CNC(=O)c1ccc2ccccc2c1)Nc1ncccc1O	5.8 µM [rising, partial curve, poor fit]	9.43	4.61 µM [rising, single point]
Cc1cc(C(=O)NCC(=O)Nc2c(C)cccc2C)c(C)o1	–	-17.3	–
CC1CC(=O)C(C2c3ccccc3CCN2C(=O)CCl)C(=O)C1 (configuration not stated)	6.51 µM [falling, partial curve, poor fit]	-9.64	–
Cc1cc(=O)[nH]c(SCC(=O)NC2CCCCC2)n1	29.1 µM [rising, single point]	-2.56	–
O=C(COC(=O)CNC(=O)c1ccc(Cl)cc1Cl)NCc1ccco1	32.6 µM [falling, single point]	13	–
CC(=O)Nc1ccc(/C=C(\C#N)C(=O)NC2CCCCC2)cc1	29.1 µM [falling, single point]	–	–
COc1ccccc1N1CCN(Cc2nc(N)nc(Nc3ccc(C)cc3)n2)CC1	2.06 µM [rising, partial curve]	10.7	–
COCCN(Cc1ccccc1)C(=O)c1cccc(S(=O)(=O)N2CCN(c3ccccc3)CC2)c1	16.4 µM [falling, single point]	1.25	–
CCN(CC)S(=O)(=O)c1ccc2[nH]cc(C(=O)NCCCN3CCCCC3)c(=O)c2c1	0.517 µM [falling, full curve]	-30.1	0.92 µM [falling, full curve, poor fit]

SMILES	AC50 [1]	cell number change [%]	AC50 [2]
CN(CC(=O)Nc1ccc(F)cc1)C(=O)C1CCCC1	0.00517 µM [falling, full curve, poor fit]	-14.2	0.00517 µM [falling, full curve, poor fit]
N#CCCN1CCN(S(=O)(=O)c2ccc3c(c2)CCC3)CC1	6.51 µM [falling, single point]	5.58	6.51 µM [falling, single point]
Cc1cc(NC(=O)COc2ccc(F)c(Cl)c2)no1	10.3 µM [rising, partial curve, poor fit]	24.9	–
CN(C)CCCN(C(=O)c1ccc(S(=O)(=O)N2CCCCCC2)cc1)c1nc2c(F)cc(F)cc2s1	–	67.7	29.1 µM [rising, single point]
O=c1cc(O)c2c(=O)n(-c3ccccc3)c3c(c2o1)CCCCCC3	2.91 µM [falling, full curve]	-14.4	3.26 µM [falling, single point]
CCN1CCN(Cc2ccc(NC(=O)c3cc(NC(=O)C4=NN(c5ccccc5)C(=O)C4)cc(OC)c3)cc2C(F)(F)F)CC1	1.84 µM [rising, partial curve, poor fit]	9.1	2.91 µM [rising, partial curve, poor fit]
COc1ccc(-c2cc(=Nc3ccc(C)cc3)c3ccccc3o2)cc1	25.9 µM [falling, single point]	-18.3	–
O=c1cnc2ccccc2n1Cc1ccc(Br)cc1	25.9 µM [rising, partial curve]	6.85	–
Cc1ccc(C)c(NC(=O)CSc2nnc(-c3ccccc3C)o2)c1	0.58 µM [rising, full curve]	47.8	0.731 µM [rising, partial curve, poor fit]
Cc1nc(-c2nc(CC(=O)NNC(=O)c3ccc(Cl)cc3)cs2)cs1	0.517 µM [rising, partial curve, poor fit]	14.2	–
CCOc1cc(/C=N/Nc2ccc(C(=O)O)cc2)ccc1OC(=O)c1ccccc1C	–	14.8	0.0461 µM [rising, full curve, poor fit]
Cc1cccc(NC(=O)CCN2CCN(C/C=C/c3ccccc3)CC2)c1	6.51 µM [falling, single point]	–	–
CCOC(=O)/C(C#N)=C1/CCCCCN1C	–	-1.08	1.03 µM [rising, full curve, poor fit]
COCCn1c(=O)[nH]c2cc(C(=O)N3CCN(c4cccc(Cl)c4)CC3)ccc2c1=O	6.51 µM [rising, single point]	5.71	–
Cc1cc(NC(=O)/C=C/c2ccc(Cl)cc2)no1	29.1 µM [rising, single point]	-38.6	1.64 µM [falling, partial curve]
CCOc1cc(/C=N/NC(=O)c2cc(-c3cccnc3)nc3ccccc23)ccc1O	–	4.35	–
COC(=O)/C(=N/Nc1cccc(C)c1)N1CCCc2ccccc21	2.06 µM [rising, partial curve, poor fit]	20.1	–
Nc1nnc(CCc2ccccc2)s1	1.84 µM [rising, partial curve]	-13.6	–
C=CCn1c(SCC(=O)c2[nH]c(C)c(C(C)=O)c2C)nnc1-c1ccncc1	6.51 µM [rising, partial curve, poor fit]	–	0.164 µM [rising, full curve, poor fit]
O=S(=O)(Nc1cccc(S(=O)(=O)N2CCCC2)c1)c1ccc(F)cc1	6.51 µM [rising, single point]	-6.62	–

SMILES	AC50 [1]	cell number change [%]	AC50 [2]
Cc1onc(-c2ccccc2)c1C(=O)NCCCc1ccccc1	1.64 µM [rising, partial curve, poor fit]	-15.5	–
N#Cc1ccc(C(=O)OCC(=O)Nc2ccc(S(N)(=O)=O)cc2)cc1	29.1 µM [falling, single point]	-13.6	–
COc1ccc(C)cc1NC(=O)CNC(=O)c1sc2ccccc2c1Cl	–	-74.1	6.51 µM [falling, full curve]
CSCCC(NC(=O)c1ccccc1Cl)C(=O)NNC(=O)c1csc(N2CCOCC2)n1 (configuration not stated)	5.8 µM [falling, partial curve, poor fit]	6.26	–
O=C(COc1ccc(Br)cc1)NCCCNC(=O)c1cccnc1	11.2 µM [rising, partial curve]	29.2	–
O=C(Nc1ccccc1Oc1ccccc1)C1CC1	0.82 µM [falling, partial curve]	-0.446	–
Cc1noc(C)c1COc1cccc(C(=O)N2CCc3ccccc32)c1	–	160	–
O=C(/C(=C(\[O-])c1ccccc1)[n+]1ccc2ccccc2c1)c1ccccc1	1.84 µM [rising, partial curve]	-41.9	23.1 µM [falling, single point]
COc1ccc(S(=O)(=O)NC2CC(=O)N(c3cccc(F)c3)C2)cc1OC (configuration not stated)	–	-88.5	29.1 µM [falling, single point]
O=C(/C=C/c1cccc([N+](=O)[O-])c1)NCCSCc1ccc(Cl)cc1	2.91 µM [rising, partial curve]	50	16.4 µM [rising, partial curve]
CN(Cc1cc(=O)n2ccsc2n1)C1CCCCC1	0.461 µM [falling, partial curve]	6.25	–
CN(CC(=O)N1CCc2ccccc21)S(=O)(=O)c1ccc(Br)s1	29.1 µM [rising, single point]	37.6	13 µM [rising, partial curve, poor fit]
Nc1ccc(S(=O)(=O)NCC(=O)OCCOc2ccccc2)cc1[N+](=O)[O-]	–	-3	–
O=C(c1ccc(Br)cc1)N1CCCc2ccccc21	–	-6.35	–
CCOC(=O)Cc1csc(SCC(=O)Nc2nccs2)n1	16.4 µM [falling, partial curve, poor fit]	7.98	–
CC(NC(=S)Nc1ccccc1)C1COc2ccccc2O1 (configuration not stated)	29.1 µM [rising, single point]	2.09	–
COC(=O)c1ccc(C(=O)N2CCCC(N3CCN(c4ccccc4)CC3)C2)nc1 (configuration not stated)	23.1 µM [rising, single point]	-10.1	–
C=CCn1c(SCC(=O)Nc2cc(OC)c(NC(=O)c3ccco3)cc2OC)nnc1-c1ccncc1	5.8 µM [rising, single point]	6.26	–

Taken from above.
O=C(/C(=C(\[O-])c1ccccc1)[n+]1ccc2ccccc2c1)c1ccccc1 | AC50 [2]: 23.1 µM [falling, single point]
Cc1onc(-c2ccccc2)c1C(=O)NCCCc1ccccc1 | AC50 [1]: 1.64 µM [rising, partial curve, poor fit]
